Reference: PubChem BioAssay AID1259405 (NCATS, 2018)
The deposit covers about 50,000 reagents; below is an unselected part. Over the whole deposit, about 4,000 (8%) got an active call. 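Mouse siRNA library applied to hamster cells; one well for each siRNA.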 Unmarked entries are inactive. The numbers tell different reagents against one gene apart.

Assay: 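Mouse-designed siRNAs used to find CHO productivity engineering targets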 (primary screen)
Cells: Chinese hamster CHO-K1 ovary cells with stable secreted eGFP expression
Knock-down reagent: single siRNA against mouse genes, 0.8 pmol siRNA per well (2 µl of 400 nM stock)
Time to read-out: 3 days
Detection: 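Percent of the per-plate non-targeting control median for intracellular GFP per well by laser scanning cytometry and for cell viability by ATP luminescence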
Reading the numbers: GFP, % of control: higher = more GFP per well, higher productivity; viability (ATP), % of control: higher = more viable cells (more ATP)
Hit rule: 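a knock-down is called active if GFP reaches 120% or more of non-targeting control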

no.	gene knocked down	reagent no.	GFP, % of control	viability (ATP), % of control
1	Nudt6 (GeneID 229228)	1	94	75.8
2	Nudt6 (GeneID 229228)	2	87.4	65.2
3	Nudt6 (GeneID 229228)	3	85.9	87.5
4	Or5m10 (GeneID 258580)	1	37.1	49
5	Or5m10 (GeneID 258580)	2	72.8	97.2
6	Or5m10 (GeneID 258580)	3	33.3	57.5
7	Defb11 (GeneID 246081)	1	82.2	62.3
8	Defb11 (GeneID 246081)	2	83	102
9	Defb11 (GeneID 246081)	3	36.2	48.1
10	Wrn (GeneID 22427)	1	78.8	65.7
11	Wrn (GeneID 22427)	2	99.5	73.2
12	Wrn (GeneID 22427)	3	86	86.1
13	Gtpbp2 (GeneID 56055)	1	129 (active)	106
14	Gtpbp2 (GeneID 56055)	2	67.2	85.7
15	Gtpbp2 (GeneID 56055)	3	69.1	44.4
16	Cd5 (GeneID 12507)	1	101	74.9
17	Cd5 (GeneID 12507)	2	65.5	60.5
18	Cd5 (GeneID 12507)	3	72.5	41.4
19	Phf20 (GeneID 228829)	1	50.4	76.1
20	Phf20 (GeneID 228829)	2	67.7	83.8
21	Or8a1 (GeneID 406176)	1	62.8	55.8
22	Or8a1 (GeneID 406176)	2	222 (active)	28.6
23	Or8a1 (GeneID 406176)	3	100	107
24	Shcbp1 (GeneID 20419)	1	64.6	56.5
25	Shcbp1 (GeneID 20419)	2	24	38.7
26	Shcbp1 (GeneID 20419)	3	86.8	81.9
27	Entpd7 (GeneID 93685)	1	60.5	55.8
28	Entpd7 (GeneID 93685)	2	69.4	78.4
29	Entpd7 (GeneID 93685)	3	94.9	64.4
30	Cfl1 (GeneID 12631)	1	92.8	89.4
31	Cfl1 (GeneID 12631)	2	59.8	53.9
32	Cfl1 (GeneID 12631)	3	99.4	81.7
33	Drap1 (GeneID 66556)	1	86.8	75.1
34	Drap1 (GeneID 66556)	2	72.4	47.9
